The results in this text go back to patent publication US20260183367A1.

This assay concerns the target GFP-TDP-43-mNLS (UniProt Q13148). As to the kind of experiment: co-immunoprecipitation from HEK293 cells, immunoblot.

Results are given in words; binding and its absence hold for the method and conditions named. Binding seen in cells or lysates may run through a third protein. Some binding calls cover weakened binding; strength is not graded here. Sequences can lack the tags named with a protein.

Consider LAALNCSVRDWIVKHVNTNPLCDLTPIFKDYEKYLA (peptide, not shown: large carriers) [mCherry-tagged Nup50 aa160-195], for which the binding result is “binds”.

In the case of CSVRDWIVKHVNTNPLCDLTPIFKDYEKYLANIEQQ (peptide, not shown: large carriers) [mCherry-tagged Nup50 aa165-200], the binding result is “binds”.
